Data from patent US11458139B2, “Use of BRAF inhibitors for treating cutaneous reactions caused by treatment with a MEK inhibitor” (MEMORIAL SLOAN KETTERING CANCER CENTER, priority 2017, dated 2022).
At least one structure is not confirmed: it was looked up by name or label, or the drawing left a doubt.

Columns and labels:
Phospho-ERK = test: In vitro effect of a BRAF inhibitor on Phospho-ERK following administration of MEK inhibitors in HEKa cells, Western blot; type: cell-based, human; conditions: added to HKGS treated HEKa cells
MAPK (ERK) = test: ERK phosphorylation (Phospho-ERK/total ERK) in normal human keratinocytes HEKa, Western blot; type: cell-based; conditions: 2 hours treatment, 1 μM (FIGS. 1B and 1D)
Protocol: Normal human keratinocytes HEKa (purchased from Gibco Rhenium) were seeded in 10 cm dishes (300,000 cells/dish) and incubated overnight at 37° C., 5% CO2. The medium was then replaced with a starvation medium for 2 hours and the cells were subsequently treated for 2 additional hours with the test compounds (i.e BRAF inhibitors). […]
Post incubation, the cells were lysed with RIPA buffer and the protein extracts were analyzed by Western blot to detect Phospho-ERK and total ERK using suitable antibodies. Untreated cells and 0.1% DMSO treated cells were used as negative control and Human Keratinocyte Growth Supplement (HKGS) (Gibco) was used as a positive control.
Western Blot: 7.5 μg of total extract was loaded on 10% or 12% acrylamide gel. […]
HRP was subsequently inactivated by incubating the membranes for 1 hour with 0.5% sodium azide. […] The films were scanned and the signal was quantified using ImageJ software. The results were calculated as Phospho-ERK/total ERK. […]
In order to determine the effect of various BRAF inhibitors on ERK activation in relevant keratinocytes cells, the level of ERK phosphorylation was measured in normal human keratinocytes in response to treatment with the BRAF inhibitors.

Structure (SMILES)	levels of Phospho-ERK compared to HKGS alone (Phospho-ERK)	ERK activation (increase in the relative amount of Phosphorylated ERK) (MAPK (ERK))
CC(=O)Nc1cccc(-n2c(=O)n(C3CC3)c(=O)c3c(Nc4ccc(I)cc4F)n(C)c(=O)c(C)c32)c1 [Trametinib]	decrease the levels of Phospho-ERK	–
CCCS(=O)(=O)Nc1ccc(F)c(C(=O)c2c[nH]c3ncc(-c4ccc(Cl)cc4)cc23)c1F [vemurafenib, reference compound]	–	significant ERK activation
